Assay results taken from patent US20240400690A1 (BIO THERA SOLUTIONS, published 2024).
No constants are given. Whether binding was seen depends on the method and setting. Some results given as binding are weak or reduced against the parent protein; the word gives no strength.

Molecular target: T1, B7-H3 on tumour cells (MDA-MB-468 cells, N87 cells) (UniProt Q5ZPR3)
T1 sequence (looked up): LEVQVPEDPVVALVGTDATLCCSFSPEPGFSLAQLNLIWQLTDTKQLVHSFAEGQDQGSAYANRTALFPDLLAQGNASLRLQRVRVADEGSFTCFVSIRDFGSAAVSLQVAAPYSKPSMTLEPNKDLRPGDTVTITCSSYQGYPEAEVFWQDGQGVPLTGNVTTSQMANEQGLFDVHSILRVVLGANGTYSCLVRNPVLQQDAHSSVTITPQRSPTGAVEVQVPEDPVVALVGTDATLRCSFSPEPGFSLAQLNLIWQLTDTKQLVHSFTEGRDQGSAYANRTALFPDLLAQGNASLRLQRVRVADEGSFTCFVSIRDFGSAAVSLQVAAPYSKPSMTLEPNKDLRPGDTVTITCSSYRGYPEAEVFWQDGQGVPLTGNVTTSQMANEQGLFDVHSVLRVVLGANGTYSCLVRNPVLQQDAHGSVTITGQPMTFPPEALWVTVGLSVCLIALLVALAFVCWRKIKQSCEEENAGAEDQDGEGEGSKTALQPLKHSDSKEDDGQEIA
Experiment: flow cytometry on MDA-MB-468 cells, PE goat anti-human IgG Fc secondary

B1: control antibody M30-H1-L4 (antibody, human IgG1, kappa, V domains shown)
VH: QVQLVQSGAEVKKPGSSVKVSCKASGYTFTNYVMHWVRQAPGQGLEWMGYINPYNDDVKYNEKFKGRVTITADESTSTAYMELSSLRSEDTAVYYCARWGYYGSPLYYFDYWGQGTLVTVSS
VL: EIVLTQSPATLSLSPGERATLSCRASSRLIYMHWYQQKPGQAPRPLIYATSNLASGIPARFSGSGSGTDFTLTISSLEPEDFAVYYCQQWNSNPPTFGQGTKVEIKR
notes: Control anti-B7-H3 antibody; also called HIL4
binding: binds
